Test results taken from PMC8470702, “Improved HDAC Inhibition, Stronger Cytotoxic Effect and Higher Selectivity against Leukemias and Lymphomas of Novel, Tricyclic Vorinostat Analogues” (Pharmaceuticals, 2021).

Key:
[1] = tested on: MV4-11 cells; assay: Cytotoxicity assay (MTT), 72 h; type: cell-based; conditions: Homo sapiens, MV4-11, 72 h, read-out: IC50 MV4-11
[2] = tested on: Daudi cells; assay: Cytotoxicity assay (MTT), 72 h; type: cell-based; conditions: Homo sapiens, read-out: IC50 Daudi
[3] = tested on: A549 cells; assay: Cytotoxicity assay (SRB), 72 h; type: cell-based; conditions: Homo sapiens, A549, 72 h, read-out: IC50 A549
[4] = tested on: MCF-7 cells; assay: Cytotoxicity assay (SRB), 72 h; type: cell-based; conditions: Homo sapiens, MCF7, 72 h, read-out: IC50 MCF-7
[5] = tested on: BALB/3T3 cells; assay: Cytotoxicity assay (SRB), 72 h; conditions: Mus musculus, BALB/3T3, 72 h, read-out: IC50 BALB/3T3

O=C(CCCCCCC(=O)Nc1ccccc1)NO [Vorinostat]
IC50 [1]: 636 ± 92 nM
IC50 [2]: 493 ± 93 nM
IC50 [3]: 1640 ± 320 nM
IC50 [4]: 685 ± 60 nM
IC50 [5]: 1420 ± 230 nM
